Test results reported in the supplement of paper PMC12819154, “High-throughput peptide-centric local stability assay extends protein–ligand identification to membrane proteins, tissues and bacteria” (Nature Structural & Molecular Biology, 2025).
This is one part of the list. Most entries show no effect beyond the scatter of the controls.

Chains of the proteins cited; added tags and fusions are not shown. Lines headed by an entry give the natural chain unless they say otherwise; changes in a name come on top.
UniProt P40937, whole entry: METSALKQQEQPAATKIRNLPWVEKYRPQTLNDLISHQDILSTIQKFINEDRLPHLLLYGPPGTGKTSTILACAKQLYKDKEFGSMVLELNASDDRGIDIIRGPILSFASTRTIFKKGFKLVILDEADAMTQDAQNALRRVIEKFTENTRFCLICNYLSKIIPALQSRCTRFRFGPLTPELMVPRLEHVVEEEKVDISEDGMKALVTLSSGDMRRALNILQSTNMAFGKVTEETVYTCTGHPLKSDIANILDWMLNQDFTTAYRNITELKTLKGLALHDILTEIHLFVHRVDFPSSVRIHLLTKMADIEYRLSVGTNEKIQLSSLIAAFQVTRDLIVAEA
UniProt P42166: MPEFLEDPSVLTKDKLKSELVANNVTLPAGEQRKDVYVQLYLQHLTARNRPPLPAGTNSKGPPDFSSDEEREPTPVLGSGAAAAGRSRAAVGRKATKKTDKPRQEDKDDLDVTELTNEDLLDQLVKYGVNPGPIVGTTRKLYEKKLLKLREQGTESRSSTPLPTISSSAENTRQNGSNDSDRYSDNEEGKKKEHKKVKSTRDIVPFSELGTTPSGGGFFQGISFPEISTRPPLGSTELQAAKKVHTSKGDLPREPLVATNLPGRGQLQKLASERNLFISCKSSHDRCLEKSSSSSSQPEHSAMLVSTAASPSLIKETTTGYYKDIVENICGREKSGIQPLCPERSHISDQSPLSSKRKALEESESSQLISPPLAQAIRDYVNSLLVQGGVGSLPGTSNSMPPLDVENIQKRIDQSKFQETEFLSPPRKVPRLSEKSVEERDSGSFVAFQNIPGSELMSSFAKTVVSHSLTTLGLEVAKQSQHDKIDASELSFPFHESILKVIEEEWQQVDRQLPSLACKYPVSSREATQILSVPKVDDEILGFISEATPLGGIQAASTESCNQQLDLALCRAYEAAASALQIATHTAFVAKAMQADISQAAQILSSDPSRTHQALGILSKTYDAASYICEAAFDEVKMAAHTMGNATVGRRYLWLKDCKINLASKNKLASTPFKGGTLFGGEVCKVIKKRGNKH
UniProt P45974: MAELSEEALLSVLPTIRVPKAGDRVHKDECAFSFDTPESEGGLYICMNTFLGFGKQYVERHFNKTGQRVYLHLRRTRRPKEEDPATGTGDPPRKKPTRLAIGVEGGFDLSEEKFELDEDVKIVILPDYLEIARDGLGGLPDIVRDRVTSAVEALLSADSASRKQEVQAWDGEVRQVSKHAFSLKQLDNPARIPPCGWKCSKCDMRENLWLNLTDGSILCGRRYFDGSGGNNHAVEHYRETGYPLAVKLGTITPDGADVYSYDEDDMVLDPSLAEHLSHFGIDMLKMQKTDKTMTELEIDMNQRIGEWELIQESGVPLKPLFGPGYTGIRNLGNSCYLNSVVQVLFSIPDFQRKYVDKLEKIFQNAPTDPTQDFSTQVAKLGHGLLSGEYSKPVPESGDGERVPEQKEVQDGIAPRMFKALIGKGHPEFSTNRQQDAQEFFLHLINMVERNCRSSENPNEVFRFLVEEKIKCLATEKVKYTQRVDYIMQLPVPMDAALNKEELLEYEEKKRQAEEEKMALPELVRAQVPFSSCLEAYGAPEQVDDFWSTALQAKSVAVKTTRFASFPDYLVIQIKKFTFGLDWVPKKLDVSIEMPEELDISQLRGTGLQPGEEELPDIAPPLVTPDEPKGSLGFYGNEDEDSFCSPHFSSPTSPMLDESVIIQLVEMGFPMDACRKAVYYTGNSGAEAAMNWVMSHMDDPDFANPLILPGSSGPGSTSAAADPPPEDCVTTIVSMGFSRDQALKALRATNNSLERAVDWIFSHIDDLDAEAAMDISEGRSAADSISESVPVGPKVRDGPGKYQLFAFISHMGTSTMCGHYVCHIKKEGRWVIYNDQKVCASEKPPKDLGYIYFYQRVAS
UniProt P38606, whole entry: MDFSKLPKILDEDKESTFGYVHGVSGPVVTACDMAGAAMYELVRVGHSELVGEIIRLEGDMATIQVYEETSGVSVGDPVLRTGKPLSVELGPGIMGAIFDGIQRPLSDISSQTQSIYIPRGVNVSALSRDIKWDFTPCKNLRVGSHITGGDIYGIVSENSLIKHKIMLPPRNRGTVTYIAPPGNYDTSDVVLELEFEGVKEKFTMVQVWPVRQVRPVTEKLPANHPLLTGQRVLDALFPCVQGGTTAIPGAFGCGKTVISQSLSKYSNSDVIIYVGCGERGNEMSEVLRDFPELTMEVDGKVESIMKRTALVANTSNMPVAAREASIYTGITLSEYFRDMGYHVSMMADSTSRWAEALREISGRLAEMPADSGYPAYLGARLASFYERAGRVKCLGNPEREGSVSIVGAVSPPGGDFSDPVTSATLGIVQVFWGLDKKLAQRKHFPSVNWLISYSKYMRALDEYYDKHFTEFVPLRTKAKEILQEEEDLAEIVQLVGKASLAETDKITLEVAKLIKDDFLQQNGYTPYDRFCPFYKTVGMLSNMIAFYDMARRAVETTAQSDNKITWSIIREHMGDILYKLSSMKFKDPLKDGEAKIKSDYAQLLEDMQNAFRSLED
UniProt P30740: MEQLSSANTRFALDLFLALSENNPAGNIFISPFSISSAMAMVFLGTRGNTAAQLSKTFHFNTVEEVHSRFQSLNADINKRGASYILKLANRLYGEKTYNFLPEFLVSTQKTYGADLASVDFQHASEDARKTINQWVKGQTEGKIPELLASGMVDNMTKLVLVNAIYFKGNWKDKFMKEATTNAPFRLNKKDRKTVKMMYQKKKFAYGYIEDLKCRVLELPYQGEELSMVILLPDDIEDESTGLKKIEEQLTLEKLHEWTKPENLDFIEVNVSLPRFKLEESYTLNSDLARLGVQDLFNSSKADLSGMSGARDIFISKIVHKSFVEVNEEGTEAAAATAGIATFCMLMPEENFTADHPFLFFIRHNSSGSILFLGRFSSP
UniProt P42331: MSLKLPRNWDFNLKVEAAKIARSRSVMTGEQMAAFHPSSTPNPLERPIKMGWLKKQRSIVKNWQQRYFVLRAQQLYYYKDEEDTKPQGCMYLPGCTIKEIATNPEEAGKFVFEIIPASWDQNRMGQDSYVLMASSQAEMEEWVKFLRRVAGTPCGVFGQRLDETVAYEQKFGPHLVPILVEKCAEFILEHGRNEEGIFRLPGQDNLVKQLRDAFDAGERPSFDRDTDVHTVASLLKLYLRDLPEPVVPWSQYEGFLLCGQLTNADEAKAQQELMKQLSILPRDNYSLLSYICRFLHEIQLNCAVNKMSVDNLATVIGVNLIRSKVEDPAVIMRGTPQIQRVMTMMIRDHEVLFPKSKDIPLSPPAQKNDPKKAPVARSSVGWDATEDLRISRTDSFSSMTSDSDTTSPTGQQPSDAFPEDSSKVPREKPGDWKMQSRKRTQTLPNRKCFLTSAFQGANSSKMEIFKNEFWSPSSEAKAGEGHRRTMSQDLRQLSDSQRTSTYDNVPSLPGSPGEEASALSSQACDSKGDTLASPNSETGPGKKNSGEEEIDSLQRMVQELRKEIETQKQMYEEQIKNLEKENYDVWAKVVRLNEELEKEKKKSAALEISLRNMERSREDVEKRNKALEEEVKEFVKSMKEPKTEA
UniProt P36915, whole entry: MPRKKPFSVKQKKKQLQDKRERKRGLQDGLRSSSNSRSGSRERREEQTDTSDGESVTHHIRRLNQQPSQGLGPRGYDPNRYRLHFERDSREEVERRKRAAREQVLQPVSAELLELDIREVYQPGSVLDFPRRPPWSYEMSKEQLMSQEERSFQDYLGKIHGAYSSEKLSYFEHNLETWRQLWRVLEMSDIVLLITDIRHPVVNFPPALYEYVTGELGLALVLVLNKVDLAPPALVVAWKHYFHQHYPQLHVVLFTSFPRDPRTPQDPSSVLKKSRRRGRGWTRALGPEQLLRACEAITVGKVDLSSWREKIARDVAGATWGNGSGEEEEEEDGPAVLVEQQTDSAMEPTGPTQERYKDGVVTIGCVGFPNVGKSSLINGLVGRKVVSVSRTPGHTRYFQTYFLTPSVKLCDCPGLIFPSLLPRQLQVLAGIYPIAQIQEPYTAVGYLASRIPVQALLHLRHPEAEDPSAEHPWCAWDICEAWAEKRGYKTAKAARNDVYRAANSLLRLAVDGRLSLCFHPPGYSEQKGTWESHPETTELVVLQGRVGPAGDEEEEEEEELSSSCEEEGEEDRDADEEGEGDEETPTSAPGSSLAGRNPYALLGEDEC
UniProt P33993, whole entry: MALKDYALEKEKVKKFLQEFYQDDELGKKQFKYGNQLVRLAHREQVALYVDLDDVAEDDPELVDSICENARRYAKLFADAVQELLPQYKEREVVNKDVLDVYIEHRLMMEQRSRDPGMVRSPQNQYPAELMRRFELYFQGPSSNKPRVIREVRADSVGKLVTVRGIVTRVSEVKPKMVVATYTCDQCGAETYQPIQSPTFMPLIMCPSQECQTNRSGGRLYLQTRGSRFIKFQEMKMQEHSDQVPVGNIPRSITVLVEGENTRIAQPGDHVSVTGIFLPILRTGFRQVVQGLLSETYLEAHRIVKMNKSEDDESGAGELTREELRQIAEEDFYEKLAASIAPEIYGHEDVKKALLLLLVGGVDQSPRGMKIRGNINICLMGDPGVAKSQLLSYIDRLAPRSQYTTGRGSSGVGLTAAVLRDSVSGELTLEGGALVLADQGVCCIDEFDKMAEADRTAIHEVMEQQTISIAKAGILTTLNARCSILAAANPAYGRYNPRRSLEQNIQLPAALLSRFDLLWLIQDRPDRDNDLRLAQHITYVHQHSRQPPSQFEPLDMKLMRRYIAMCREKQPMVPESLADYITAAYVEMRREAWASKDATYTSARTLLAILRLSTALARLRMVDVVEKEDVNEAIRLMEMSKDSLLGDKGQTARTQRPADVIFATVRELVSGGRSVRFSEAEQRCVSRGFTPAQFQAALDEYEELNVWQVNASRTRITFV
UniProt P31327: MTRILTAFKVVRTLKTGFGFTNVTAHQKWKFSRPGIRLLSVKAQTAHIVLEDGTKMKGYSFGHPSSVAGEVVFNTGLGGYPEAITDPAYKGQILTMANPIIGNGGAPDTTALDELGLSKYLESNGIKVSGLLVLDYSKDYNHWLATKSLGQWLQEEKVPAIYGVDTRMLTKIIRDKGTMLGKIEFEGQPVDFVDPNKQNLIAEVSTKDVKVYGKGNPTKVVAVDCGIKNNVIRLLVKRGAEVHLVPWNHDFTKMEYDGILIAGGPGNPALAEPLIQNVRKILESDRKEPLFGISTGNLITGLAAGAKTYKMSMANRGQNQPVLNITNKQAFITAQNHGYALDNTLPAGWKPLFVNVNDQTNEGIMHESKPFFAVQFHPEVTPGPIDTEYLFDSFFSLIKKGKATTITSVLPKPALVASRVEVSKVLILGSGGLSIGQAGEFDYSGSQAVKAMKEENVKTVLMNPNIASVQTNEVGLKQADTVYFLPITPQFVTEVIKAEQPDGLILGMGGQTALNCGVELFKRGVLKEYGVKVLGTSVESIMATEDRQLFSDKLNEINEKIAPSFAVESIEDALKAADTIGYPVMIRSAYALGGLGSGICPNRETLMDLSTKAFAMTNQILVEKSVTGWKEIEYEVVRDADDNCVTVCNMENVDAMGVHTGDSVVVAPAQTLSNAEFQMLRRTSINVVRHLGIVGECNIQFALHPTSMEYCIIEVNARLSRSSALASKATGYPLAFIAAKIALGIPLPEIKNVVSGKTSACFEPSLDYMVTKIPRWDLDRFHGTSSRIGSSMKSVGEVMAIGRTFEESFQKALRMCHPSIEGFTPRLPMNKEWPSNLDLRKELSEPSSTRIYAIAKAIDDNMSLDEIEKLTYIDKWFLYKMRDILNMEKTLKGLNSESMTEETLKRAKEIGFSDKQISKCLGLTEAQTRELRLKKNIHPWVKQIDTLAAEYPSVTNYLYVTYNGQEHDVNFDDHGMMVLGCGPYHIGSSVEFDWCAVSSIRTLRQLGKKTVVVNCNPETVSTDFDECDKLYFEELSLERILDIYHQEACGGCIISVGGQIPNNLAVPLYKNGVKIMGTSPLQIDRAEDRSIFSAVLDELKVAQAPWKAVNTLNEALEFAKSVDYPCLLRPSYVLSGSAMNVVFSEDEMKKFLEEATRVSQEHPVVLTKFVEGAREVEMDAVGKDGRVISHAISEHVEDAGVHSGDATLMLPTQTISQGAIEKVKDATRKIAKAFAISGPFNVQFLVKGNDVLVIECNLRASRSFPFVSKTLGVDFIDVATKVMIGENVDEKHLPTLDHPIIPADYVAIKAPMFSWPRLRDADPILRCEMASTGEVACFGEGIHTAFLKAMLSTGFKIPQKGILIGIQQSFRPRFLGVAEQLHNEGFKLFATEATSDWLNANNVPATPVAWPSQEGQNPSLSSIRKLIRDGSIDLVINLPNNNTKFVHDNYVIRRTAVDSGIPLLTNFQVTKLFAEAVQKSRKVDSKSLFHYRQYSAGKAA

Compound: CN[C@@H]1C[C@H]2O[C@@](C)([C@@H]1OC)n1c3ccccc3c3c4c(c5c6ccccc6n2c5c31)C(=O)NC4 [staurosporine]
Assay: log2 fold change of tryptic peptide abundance, ligand vs vehicle (limited proteolysis) (log2 ratio); higher = more trypsin-susceptible (destabilized)
Settings: ligand concentration: 20 uM; sample: K562 cleared lysate; digestion: 4 min, 22 C (HT-PELSA RT4min, Orbitrap Astral)

Row | Target | log2 fold change
1 | RFC5 (peptide sequence: LPHLLLYGPPGTGK, peptide start residue: 53) (UniProt P40937) | 0.822
2 | TMPO (peptide sequence: NRPPLPAGTNSK, peptide start residue: 49) (UniProt P42166) | 0.268
3 | USP5 (peptide sequence: KYVDKLEK, peptide start residue: 353) (UniProt P45974) | 0.361
4 | ATP6V1A (peptide sequence: ITWSIIR, peptide start residue: 565) (UniProt P38606) | 0.21
5 | SERPINB1 (peptide sequence: FQSLNADINKR, peptide start residue: 70) (UniProt P30740) | 0.221
6 | ARHGAP25 (peptide sequence: ALEEEVKEFVK, peptide start residue: 626) (UniProt P42331) | -0.223
7 | RPL13A (peptide sequence: KQAEKNVEK, peptide start residue: 179) (UniProt P40429) | 1.03
8 | RPS19 (peptide sequence: KLTPQGQR, peptide start residue: 122) (UniProt P39019) | 0.21
9 | GNL1 (peptide sequence: ALGPEQLLR, peptide start residue: 284) (UniProt P36915) | 0.0919
10 | MCM7 (peptide sequence: IRGNINICLMGDPGVAK, peptide start residue: 371) (UniProt P33993) | -0.225
11 | CPS1 (peptide sequence: GILIGIQQSFRPR, peptide start residue: 1361) (UniProt P31327) | -0.0154
